Test results taken from US9040482B2, “Octapeptide compounds and therapeutic use thereof” (IPSEN PHARMA S.A.S., priority 2010, dated 2015).
Some of these results come from one statement about several compounds together.

The chains behind the UniProt entries cited, without tags or fusion partners. Where a name states a change or a piece, a line headed by the entry shows the natural chain unless it says otherwise.
UniProt P30874: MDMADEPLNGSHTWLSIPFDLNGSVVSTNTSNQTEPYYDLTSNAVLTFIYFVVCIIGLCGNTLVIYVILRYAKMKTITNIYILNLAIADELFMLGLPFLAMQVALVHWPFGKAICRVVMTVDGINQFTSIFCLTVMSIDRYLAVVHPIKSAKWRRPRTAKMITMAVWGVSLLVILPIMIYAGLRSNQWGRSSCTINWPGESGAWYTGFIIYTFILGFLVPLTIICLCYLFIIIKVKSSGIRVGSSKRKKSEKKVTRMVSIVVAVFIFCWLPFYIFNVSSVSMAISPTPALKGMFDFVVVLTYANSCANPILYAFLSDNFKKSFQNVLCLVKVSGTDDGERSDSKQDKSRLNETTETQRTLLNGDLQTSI
UniProt P35346: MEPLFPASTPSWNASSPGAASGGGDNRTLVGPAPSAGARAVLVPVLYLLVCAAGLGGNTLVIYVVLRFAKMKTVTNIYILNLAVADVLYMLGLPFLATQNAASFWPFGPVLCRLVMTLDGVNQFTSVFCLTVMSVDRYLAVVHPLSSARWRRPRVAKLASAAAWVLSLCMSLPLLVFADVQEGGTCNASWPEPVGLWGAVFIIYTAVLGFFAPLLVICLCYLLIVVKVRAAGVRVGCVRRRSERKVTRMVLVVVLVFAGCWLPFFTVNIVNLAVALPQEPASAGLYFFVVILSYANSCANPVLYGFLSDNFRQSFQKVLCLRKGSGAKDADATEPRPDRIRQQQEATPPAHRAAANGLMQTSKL
UniProt P32745: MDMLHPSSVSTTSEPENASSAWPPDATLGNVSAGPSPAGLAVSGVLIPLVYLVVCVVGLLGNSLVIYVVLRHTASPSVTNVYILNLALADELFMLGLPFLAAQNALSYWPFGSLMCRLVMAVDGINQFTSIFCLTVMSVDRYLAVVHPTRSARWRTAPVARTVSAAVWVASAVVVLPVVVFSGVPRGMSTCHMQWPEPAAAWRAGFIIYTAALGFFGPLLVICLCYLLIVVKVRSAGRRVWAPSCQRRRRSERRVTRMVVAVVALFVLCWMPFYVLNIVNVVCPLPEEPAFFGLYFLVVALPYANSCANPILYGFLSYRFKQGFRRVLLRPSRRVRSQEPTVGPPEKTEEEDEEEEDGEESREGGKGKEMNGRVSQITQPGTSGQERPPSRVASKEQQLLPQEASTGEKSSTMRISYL

Key:
Conditions in all cases: [125I-Tyr11]SRIF-14 displacement
[1] = target: T1, somatostatin receptors sub-type 2 (Homo sapiens, UniProt P30874); experiment: Competitive inhibition of [125I-Tyr11]SRIF-14 binding to membranes of transfected CHO-K1 cells, sub-type 2
T1 construct: expressed in transfected cells; host or cells: CHO-K1

[2] = target: T2, somatostatin receptors sub-type 5 (Homo sapiens, UniProt P35346); experiment: Competitive inhibition of [125I-Tyr11]SRIF-14 binding to membranes of transfected CHO-K1 cells, sub-type 5
T2 construct: expressed in transfected cells; host or cells: CHO-K1

[3] = target: T3, somatostatin receptors sub-type 3 (Homo sapiens, UniProt P32745); experiment: Competitive inhibition of [125I-Tyr11]SRIF-14 binding to membranes of transfected CHO-K1 cells, sub-type 3
T3 construct: expressed in transfected cells; host or cells: CHO-K1

Row | Substance | affinity for the somatostatin receptors sub-type 2 ([1]; bound in nM) | affinity for the somatostatin receptors sub-type 2 ([1]; bound in μM) | affinity for the somatostatin receptors sub-type 5 ([2]; bound in μM) | affinity for the somatostatin receptors sub-type 3 ([3]; bound in μM) | affinity for the somatostatin receptors sub-type 5 ([2]; bound in nM) | affinity for the somatostatin receptors sub-type 3 ([3]; bound in nM)
1 | Ac-D-2-Nal^1-cyclo(Cys^2-Tyr^3-D-Trp^4-Lys(Ac)^5-Val^6-Cys^7)-Thr^8-NH2 [Example 7] | less than or equal to 700 nM | less than or equal to 5 μM |  |  |  | 
2 | Ac-D-2-Nal^1-cyclo(Cys^2-Tyr^3-D-Trp^4-Lys^5-Val^6-Cys^7)-Thr^8-NH2 [Example 9] |  | less than or equal to 5 μM | less than or equal to 5 μM | less than or equal to 1 μM |  | 
3 | H-D-2-Nal^1-cyclo(Cys^2-Tyr^3-D-Trp^4-(Me)2Lys^5-Val^6-Cys^7)-Thr^8-NH2 [Example 2] |  | less than or equal to 5 μM | less than or equal to 5 μM | less than or equal to 1 μM | less than or equal to 500 nM | less than or equal to 200 nM
4 | H-D-2-Nal^1-cyclo(Cys^2-Tyr^3-D-Trp^4-Dab^5-Val^6-Cys^7)-Thr^8-NH2 [Example 4] | less than or equal to 700 nM | less than or equal to 5 μM | less than or equal to 5 μM | less than or equal to 1 μM |  | 
5 | H-D-2-Nal^1-cyclo(Cys^2-Tyr^3-D-Trp^4-Dap^5-Val^6-Cys^7)-Thr^8-NH2 [Example 5] |  | less than or equal to 5 μM | less than or equal to 5 μM | less than or equal to 1 μM |  | 
6 | H-D-2-Nal^1-cyclo(Hcy^2-Tyr^3-D-Trp^4-Lys^5-Val^6-Cys^7)-Thr^8-NH2 [Example 8] |  | less than or equal to 5 μM | less than or equal to 5 μM | less than or equal to 1 μM |  | 
7 | N-Methyl-D-2-Nal^1-cyclo(Cys^2-Tyr^3-D-Trp^4-Lys^5-Val^6-Cys^7)-Thr^8-NH2 [Example 3] |  | less than or equal to 5 μM | less than or equal to 5 μM | less than or equal to 1 μM |  | less than or equal to 200 nM
